Measurements published in paper PMC6791651.
Substitutions are numbered along the chain they refer to. These are yes or no findings as the source states them, for the method shown. Binding seen in cells or lysates may run through a third protein. Some results given as binding are weak or reduced against the parent protein; the word gives no strength. Sequences can lack the tags named with a protein. One block for each binder: values may come before it.

Experiments:
FLAG-POT1 (human) = target: T1, FLAG-POT1 (human) (UniProt Q9NUX5); assay: co-IP; reciprocal pulldown of FLAG-TPP1/POT1/TERT with anti-FLAG M2 affinity gel from CHAPS lysate; all three FLAG proteins captured at once; data not shown
T1 sequence: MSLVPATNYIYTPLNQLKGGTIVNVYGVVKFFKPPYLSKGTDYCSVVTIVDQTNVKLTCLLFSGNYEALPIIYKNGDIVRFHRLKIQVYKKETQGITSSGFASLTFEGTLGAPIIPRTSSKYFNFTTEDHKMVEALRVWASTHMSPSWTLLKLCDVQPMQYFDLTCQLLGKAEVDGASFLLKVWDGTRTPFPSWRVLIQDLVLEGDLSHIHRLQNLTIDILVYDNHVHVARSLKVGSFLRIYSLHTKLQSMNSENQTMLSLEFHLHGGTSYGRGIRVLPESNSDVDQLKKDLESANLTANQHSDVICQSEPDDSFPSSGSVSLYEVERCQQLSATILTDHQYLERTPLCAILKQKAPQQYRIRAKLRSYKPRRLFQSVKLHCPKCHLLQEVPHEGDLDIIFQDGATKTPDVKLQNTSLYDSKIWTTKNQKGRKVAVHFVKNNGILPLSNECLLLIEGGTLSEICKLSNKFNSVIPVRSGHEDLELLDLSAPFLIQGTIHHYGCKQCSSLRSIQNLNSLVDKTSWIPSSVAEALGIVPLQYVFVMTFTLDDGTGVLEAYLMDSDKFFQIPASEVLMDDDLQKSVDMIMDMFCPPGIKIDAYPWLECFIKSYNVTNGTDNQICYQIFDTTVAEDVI

myc-TIN2L (human) [1] = target: T2, myc-TIN2L (human) (UniProt Q9BSI4); assay: co-IP; anti-c-myc-agarose beads pull down myc-TIN2 from CHAPS lysate of TPP1/POT1/TERT cells transfected with myc-TIN2; 2 h at 4°C, 4 washes with CHAPS buffer; FLAG Western blot
T2 sequence: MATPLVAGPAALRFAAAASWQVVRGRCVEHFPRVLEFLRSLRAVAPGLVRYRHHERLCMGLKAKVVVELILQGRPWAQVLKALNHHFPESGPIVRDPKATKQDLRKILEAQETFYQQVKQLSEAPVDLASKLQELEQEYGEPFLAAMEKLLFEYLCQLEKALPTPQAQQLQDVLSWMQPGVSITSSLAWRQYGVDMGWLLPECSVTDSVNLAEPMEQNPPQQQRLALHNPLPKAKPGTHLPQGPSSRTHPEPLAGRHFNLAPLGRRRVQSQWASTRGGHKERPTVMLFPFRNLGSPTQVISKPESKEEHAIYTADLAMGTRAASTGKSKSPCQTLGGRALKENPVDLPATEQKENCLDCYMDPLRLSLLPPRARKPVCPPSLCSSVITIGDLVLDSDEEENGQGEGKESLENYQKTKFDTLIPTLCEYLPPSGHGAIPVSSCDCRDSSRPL

myc-TIN2L K280E (human) = target: T3, myc-TIN2L K280E (human) (UniProt Q9BSI4); assay: as above
T3 sequence: T2 sequence with K280E

myc-TIN2M (human) [2] = target: T4, myc-TIN2M (human) (UniProt Q9BSI4); assay: as above
T4 sequence: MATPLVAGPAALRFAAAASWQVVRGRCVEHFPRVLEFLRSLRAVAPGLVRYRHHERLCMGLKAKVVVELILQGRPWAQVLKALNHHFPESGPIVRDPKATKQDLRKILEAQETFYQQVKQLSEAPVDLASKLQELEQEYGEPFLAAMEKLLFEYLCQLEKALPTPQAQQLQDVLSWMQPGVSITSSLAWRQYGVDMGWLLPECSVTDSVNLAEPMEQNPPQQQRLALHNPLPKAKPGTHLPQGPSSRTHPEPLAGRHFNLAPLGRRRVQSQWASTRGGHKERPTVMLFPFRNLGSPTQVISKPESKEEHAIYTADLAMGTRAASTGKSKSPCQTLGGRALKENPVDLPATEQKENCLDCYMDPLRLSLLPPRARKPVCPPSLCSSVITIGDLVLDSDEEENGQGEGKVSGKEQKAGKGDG

myc-TIN2M K280E (human) = target: T5, myc-TIN2M K280E (human) (UniProt Q9BSI4); assay: as above
T5 sequence: T4 sequence with K280E

myc-TIN2S (human) [3] = target: T6, myc-TIN2S (human) (UniProt Q9BSI4); assay: as above
T6 sequence: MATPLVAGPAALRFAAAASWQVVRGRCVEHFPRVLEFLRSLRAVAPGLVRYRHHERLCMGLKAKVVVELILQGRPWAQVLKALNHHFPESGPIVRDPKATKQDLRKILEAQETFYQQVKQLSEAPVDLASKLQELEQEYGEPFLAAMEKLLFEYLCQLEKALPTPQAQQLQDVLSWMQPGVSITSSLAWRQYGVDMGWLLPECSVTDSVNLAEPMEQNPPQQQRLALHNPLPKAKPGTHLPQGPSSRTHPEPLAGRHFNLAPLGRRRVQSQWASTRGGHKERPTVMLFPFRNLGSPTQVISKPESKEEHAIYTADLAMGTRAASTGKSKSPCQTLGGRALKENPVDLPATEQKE

myc-TIN2S K280E (human) = target: T7, myc-TIN2S K280E (human) (UniProt Q9BSI4); assay: as above
T7 sequence: T6 sequence with K280E

myc-TIN2L (human) [4] = target: T2, myc-TIN2L (human); assay: co-IP; anti-c-myc-agarose beads pull down myc-TIN2 from CHAPS lysate of TPP1^TEL/POT1/TERT cells transfected with myc-TIN2; 2 h at 4°C, 4 washes with CHAPS buffer; FLAG Western blot
myc-TIN2M (human) [5] = target: T4, myc-TIN2M (human); assay: as above
myc-TIN2S (human) [6] = target: T6, myc-TIN2S (human); assay: as above

B1: myc-TIN2L (protein, UniProt Q9BSI4-1 1-451)
chain: T2 sequence
- binding (FLAG-POT1 (human)): binds

B4: FLAG-POT1 (protein, UniProt Q9NUX5 1-634)
chain: T1 sequence
- binding (myc-TIN2L (human) [1]): binds
- binding (myc-TIN2L K280E (human)): binds
- binding (myc-TIN2M (human) [2]): binds
- binding (myc-TIN2M K280E (human)): binds
- binding (myc-TIN2S (human) [3]): binds
- binding (myc-TIN2S K280E (human)): binds
- binding (myc-TIN2L (human) [4]): binds
- binding (myc-TIN2M (human) [5]): binds
- binding (myc-TIN2S (human) [6]): binds

The next lines start with the values.

- binding (FLAG-POT1 (human)): binds
B2: myc-TIN2M (protein, UniProt Q9BSI4 1-407)
chain: T4 sequence

- binding (FLAG-POT1 (human)): binds
B3: myc-TIN2S (protein, UniProt Q9BSI4-1 1-354)
chain: T6 sequence
